From PMC10711549
These are yes or no findings as the source states them, for the method shown. Binding seen in cells or lysates may run through a third protein. Some binding calls cover weakened binding; strength is not graded here.

By UniProt entry, the sequences of proteins in these tests, tags left out.
UniProt Q15853: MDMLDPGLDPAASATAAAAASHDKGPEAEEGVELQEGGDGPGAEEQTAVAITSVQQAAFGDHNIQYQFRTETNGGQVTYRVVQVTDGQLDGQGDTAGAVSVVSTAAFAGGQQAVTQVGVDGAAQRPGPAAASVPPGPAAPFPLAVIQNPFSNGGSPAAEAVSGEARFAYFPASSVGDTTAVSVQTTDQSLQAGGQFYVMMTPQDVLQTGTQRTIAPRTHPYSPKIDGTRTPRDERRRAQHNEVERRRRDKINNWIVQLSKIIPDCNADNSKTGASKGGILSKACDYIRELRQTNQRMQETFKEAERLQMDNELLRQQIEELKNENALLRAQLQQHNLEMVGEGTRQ
UniProt Q15046: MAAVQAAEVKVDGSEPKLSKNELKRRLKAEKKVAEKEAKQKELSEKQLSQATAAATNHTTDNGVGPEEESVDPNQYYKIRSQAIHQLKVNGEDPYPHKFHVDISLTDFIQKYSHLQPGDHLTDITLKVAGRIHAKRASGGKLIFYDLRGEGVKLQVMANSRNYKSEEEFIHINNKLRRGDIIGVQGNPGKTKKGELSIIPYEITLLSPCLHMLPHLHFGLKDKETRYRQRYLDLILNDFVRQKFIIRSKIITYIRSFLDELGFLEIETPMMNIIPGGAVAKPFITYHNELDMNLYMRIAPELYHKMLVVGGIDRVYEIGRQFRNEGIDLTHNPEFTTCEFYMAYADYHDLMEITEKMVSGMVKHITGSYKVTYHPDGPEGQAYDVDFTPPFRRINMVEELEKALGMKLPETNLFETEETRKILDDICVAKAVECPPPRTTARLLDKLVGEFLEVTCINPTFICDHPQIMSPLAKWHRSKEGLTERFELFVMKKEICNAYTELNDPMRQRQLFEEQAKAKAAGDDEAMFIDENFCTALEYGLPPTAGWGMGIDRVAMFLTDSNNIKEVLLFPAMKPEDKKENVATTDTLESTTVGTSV

Molecular target: Upstream transcription factor 2 (USF2) (human (endogenous in Jurkat)) (UniProt Q15853)
Test: co-IP; reciprocal co-IP (precipitation of USF2, blot for LysRS) from sonicated Jurkat cell lysates, without or with single-cycle HIV-1 infection; 1% Triton X-100, overnight

binding: binds
Substance: Human lysyl-tRNA synthetase (LysRS) (from UniProt Q15046 1-597) (enzyme)
